Earlier results as cited in patent US20040265230A1, “Compositions and methods for diagnosing and treating colon cancers” (priority 2003, published 2004).
At least one compound was matched to its structure with a doubt left.

Sequences of proteins named here, by UniProt entry; tags and fusion partners are left off.
UniProt P68403, whole entry: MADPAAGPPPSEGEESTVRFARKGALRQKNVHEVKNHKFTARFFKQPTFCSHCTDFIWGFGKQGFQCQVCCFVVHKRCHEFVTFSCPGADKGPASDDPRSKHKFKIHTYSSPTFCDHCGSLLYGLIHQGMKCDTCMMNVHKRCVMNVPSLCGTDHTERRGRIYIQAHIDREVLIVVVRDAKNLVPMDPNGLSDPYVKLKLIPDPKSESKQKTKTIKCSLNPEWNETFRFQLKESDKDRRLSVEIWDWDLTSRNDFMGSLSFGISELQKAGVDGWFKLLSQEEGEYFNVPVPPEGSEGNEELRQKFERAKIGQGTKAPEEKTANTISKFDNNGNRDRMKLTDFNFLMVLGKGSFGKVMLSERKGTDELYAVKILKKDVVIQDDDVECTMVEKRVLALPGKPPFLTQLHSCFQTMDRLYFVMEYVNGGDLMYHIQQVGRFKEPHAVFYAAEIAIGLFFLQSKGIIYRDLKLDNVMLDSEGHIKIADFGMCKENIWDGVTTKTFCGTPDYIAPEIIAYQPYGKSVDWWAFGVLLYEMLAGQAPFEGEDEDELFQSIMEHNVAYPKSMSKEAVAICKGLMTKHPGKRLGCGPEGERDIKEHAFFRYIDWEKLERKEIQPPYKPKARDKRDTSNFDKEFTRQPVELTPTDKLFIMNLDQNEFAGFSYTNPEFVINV

Biological target: T1, PKCβ (Rattus norvegicus, UniProt P68403)
T1 construct: from tissue; host or cells: diabetic rats (renal glomeruli), in vivo; finding recounted from the literature
Conditions: diabetic rats

CN(C)C[C@@H]1CCn2cc(c3ccccc32)C2=C(C(=O)NC2=O)c2cn(c3ccccc23)CCO1 [LY333531]
levels of cytokines, caldesmon and hemodynamics of retinal and renal blood flow: normalized
